Laboratory results reported in article PMC8179358, “An explicitly designed paratope of amyloid-β prevents neuronal apoptosis in vitro and hippocampal damage in rat brain” (Chemical Science, 2020).

Test: FRET and time-resolved fluorescence, SP1 with homologous Aβ sequence
Assay type: binding
Conditions: for kf: kf = Φ/τ; for knr: knr = (1-Φ)/τ; for quantum yield Φf / fluorescence lifetime τ: λex 290 nm, 20 µM; for fluorescence lifetime τ: PBS pH 7.4, 3% DMSO

Substance | kf (λem 355 nm) | knr (λem 355 nm) | quantum yield Φf (λem 355 nm) | fluorescence lifetime τ (λem 355 nm) | kf (λem 495 nm) | knr (λem 495 nm) | quantum yield Φf (λem 495 nm) | fluorescence lifetime τ (λem 495 nm)
GLVFFAW-NH2 [LP1A, fluorescently labeled homologous Aβ fragment containing tryptophan, FRET donor] | 0.126 | 0.399 | 0.241 | 1.90 ns | – | – | – | –
GLVFFAX-NH2 [LP1B, fluorescently labeled homologous Aβ fragment containing dansyl, FRET acceptor] | – | – | – | – | 0.005 | 0.241 | 0.021 | 4.06 ns
